PubChem BioAssay AID504791, Drosophila RNAi Screening Center, 2011

- Assay: 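Factors in Argonaute-based small RNA production and activity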 (primary screen)
- Cells: Drosophila S2-derived reporter cells
- Knock-down reagent: long dsRNA against Drosophila genes, about 150-250 ng dsRNA per well (siRNA assay); about 80-120 ng (miRNA assay)
- Time to read-out: about 5 days (siRNA assay); about 4 days (miRNA assay)
- Challenge: copper sulfate induction of reporters: 25 µM (siRNA assay); 200 mM stated (miRNA assay), 1-2 days before reading
- Read-out: 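Dual luciferase assay: Renilla to firefly signal ratio in each well, scaled to the mean ratio of its plate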
- Direction: siRNA reporter hit score: higher = 3 marks a strong hit with raised ratio; -3 a strong hit with lowered ratio
- Hit rule: 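First-pass picks had plate-scaled ratios over 1.5 for the siRNA assay, over 1.6 for the miRNA assay, or under 0.6; two distinct dsRNAs had to score alike on retest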
The deposit covers about 23,000 reagents; this is a random part of those with a known target gene and a result. In the full data, 199 (0.86%) were called active. 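Plate-scaled ratios behind the calls are not deposited; printed light signals are raw; many rows marked increased or decreased are still called inactive.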 Reagents against one gene are numbered here. Names joined by + are all predicted targets of the reagent.

Target gene	reagent no.	siRNA reporter hit score	stable siRNA reporter change	miRNA reporter change	stable assay Renilla, run 1 (luminescence)	stable assay firefly, run 1 (luminescence)	call
SkpC (SKP1-related C)	1				5948	5.03e5	inactive
CG4546	1				6283	3.41e5	inactive
CG31199	1				7979	3.51e5	inactive
Ubr3 (Ubr3 ubiquitin ligase)	1		reporter ratio raised past the hit cutoff		10108	3.34e5	inactive
Ubr3 (Ubr3 ubiquitin ligase)	2				5766	2.66e5	inactive
Cyp6a9 (Cytochrome P450 6a9)	1				7620	4.14e5	inactive
Tsp42Ec (Tetraspanin 42Ec)	1				6640	4.01e5	inactive
Obp51a (Odorant-binding protein 51a)	1				4399	4.38e5	inactive
WDR79 (WD repeat domain 79)	1		reporter ratio raised past the hit cutoff		14043	9.60e5	active
wdp (windpipe)	1				13252	1.34e6	inactive
RpS14b (Ribosomal protein S14b)	1	3			6314	5.35e5	inactive
BomBc3 (Bomanin Bicipital 3)	1				7688	4.91e5	inactive
CG9416	1				8262	5.33e5	inactive
Aldh7A1 (Aldehyde dehydrogenase 7 family member A1)	1				8019	3.01e5	inactive
CG10431	1				6459	3.52e5	inactive
CG12081	1				7801	4.61e5	inactive
CG13384	1				12559	5.12e5	inactive
Nil (Nilkantha)	1				8502	3.79e5	inactive
Nil (Nilkantha)	2				5383	3.68e5	inactive
CG12377 (retired record)	1				7740	5.39e5	inactive
CG12377 (retired record)	2				8098	4.01e5	inactive
CG11406	1				4855	5.03e5	inactive
CG11406	2				6890	4.57e5	inactive
betaTub60D (beta-Tubulin at 60D)	1				5451	3.47e5	inactive
betaTub60D (beta-Tubulin at 60D)	2				8577	5.38e5	inactive
Osi3 (Osiris 3)	1				5963	3.23e5	inactive
CG17572	1				7430	4.78e5	inactive
Spc25	1		reporter ratio lowered past the hit cutoff		5995	5.69e5	inactive
Osi4 (Osiris 4)	1				7434	3.94e5	inactive
CG33288	1				5767	3.94e5	inactive
sm (smooth)	1				6036	4.89e5	inactive
sm (smooth)	2				8752	2.97e5	inactive
CG15025	1				6398	2.56e5	inactive
CG31913	1				4243	3.03e5	inactive
sv (shaven)	1	3			6662	3.66e5	inactive
CG31933	1				8734	5.43e5	inactive
ocm (over compensating males)	1				18016	1.20e6	inactive
CG10663	1				7985	4.87e5	inactive
CCKLR-17D3 (Cholecystokinin-like receptor at 17D3)	1				6054	4.90e5	inactive
CCKLR-17D3 (Cholecystokinin-like receptor at 17D3)	2				6563	5.35e5	inactive
Rcd6 (Reduction in Cnn dots 6)	1				8755	2.50e5	inactive
Nrt (Neurotactin)	1				9272	4.05e5	inactive
CG42268	1			reporter ratio lowered past the hit cutoff	5395	4.57e5	inactive
CG42268	2				6104	2.88e5	inactive
CG42268	3				8823	4.27e5	inactive
CG7080	1				9583	2.93e5	inactive
Dhc93AB (Dynein heavy chain at 93AB)	1				7778	2.88e5	inactive
CG15282	1				2379	2.58e5	inactive
CG15282	2				3659	2.66e5	inactive
Tudor-SN (Tudor staphylococcal nuclease)	1				14272	4.79e5	inactive
CG5377	1				7889	3.64e5	inactive
Tapdelta (Translocon-associated protein delta)	1				8111	3.89e5	inactive
pn (prune)	1				10041	5.35e5	inactive
Spn43Ab (Serpin 43Ab)	1				6527	3.64e5	inactive
Hs3st-B (Heparan sulfate 3-O sulfotransferase-B)	1				5124	4.49e5	inactive
CG46301	1				5179	3.85e5	inactive
CG34183	1				5375	4.58e5	inactive
kin17	1				8974	6.04e5	inactive
Ccp84Af	1				7322	4.87e5	inactive
AspRS-m (Aspartyl-tRNA synthetase, mitochondrial)	1				6258	3.77e5	inactive
CG13454	1				3624	3.64e5	inactive
Sox15 (Sox box protein 15)	1				6818	3.54e5	inactive
CG3511	1				2.15e5	1.65e6	inactive
CG10973	1				8164	3.52e5	inactive
bur (burgundy)	1				8788	1.30e6	inactive
CG9254	1				8286	4.35e5	inactive
CG3618	1				8335	3.41e5	inactive
CG9447	1				7402	4.69e5	inactive
CG4297	1				8302	5.12e5	inactive
CG13721	1				6015	4.58e5	inactive
Oseg5 (Outer segment 5)	1				7599	4.20e5	inactive
CNT1 + CG13742	1				5711	2.85e5	inactive
Kpc2 (Kip1 ubiquitination-promoting complex subunit 2)	1				5012	2.58e5	inactive
CG6800	1				7930	4.17e5	inactive
Ogg1 (8-oxoguanine DNA glycosylase)	1				7496	4.52e5	inactive
mtTFB1 + Ccdc56	1				3464	3.39e5	inactive
Obp93a (Odorant-binding protein 93a)	1				7379	4.00e5	inactive
Gbeta13F (G protein beta subunit 13F)	1				8236	3.63e5	inactive
CG8136	1				6423	3.32e5	inactive
CG8420	1				6464	4.67e5	inactive
CG14374	1				7931	4.67e5	inactive
vas (retired record)	1				9910	6.66e5	inactive
flfl (falafel)	1		reporter ratio lowered past the hit cutoff	reporter ratio lowered past the hit cutoff	5639	5.28e5	active

Limited to “stable assay Renilla, run 1 (luminescence)”, for 14 of the entries above:
CG9416: 8262
Aldh7A1 (Aldehyde dehydrogenase 7 family member A1): 8019
CG10431: 6459
CG12081: 7801
CG13384: 12559
Nil (Nilkantha) #1: 8502
Nil (Nilkantha) #2: 5383
CG12377 (retired record) #1: 7740
CG12377 (retired record) #2: 8098
CG11406 #1: 4855
CG11406 #2: 6890
betaTub60D (beta-Tubulin at 60D) #1: 5451
betaTub60D (beta-Tubulin at 60D) #2: 8577
Osi3 (Osiris 3): 5963
